Measurements published in PubChem BioAssay AID493014 (National Center for Advancing Translational Sciences (NCATS), 2011).
This is one part of the list. Further columns of the screen follow, without active or inactive calls. Most of these compounds were active or inconclusive in the main read-out, so they are no random draw. The note in brackets gives the kind of curve behind each potency; many fits are weak.

Test: qHTS Assay to Find Inhibitors of Chronic Active B-Cell Receptor Signaling
Settings: ABC-DLBCL IkBa-CBG/CBR reporter, luminescence ratio (green luciferase fused to IkBa over red control in TMD8 lymphoma cells), 4 h
Outline: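 Compounds up to 46 uM were incubated four hours with TMD8 cells whose green CBG68 luciferase is fused to IkappaBalpha; red CBR luminescence normalised the signal, and concentration-effect curves were fitted to fusion, red and ratio data.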

[1] = measured here: CBR red luminescence, cell number
[2] = measured here: IkBa-CBG green luminescence

Row | Structure (SMILES) | AC50 [1] | AC50 [2]
1 | O=S(=O)(c1ccccc1)N1c2cc(Cl)ccc2Oc2nc3ccccc3nc21 | 0.82 µM [rising, full curve, poor fit] | –
2 | C=CCNC(=O)N1CCc2[nH]c3ccc(F)cc3c2C1 | 15.8 µM [falling, single point] | –
3 | CC(Cc1ccccc1)NC(=O)c1cc([N+](=O)[O-])ccc1Cl (configuration not stated) | 1.26 µM [rising, partial curve, poor fit] | –
4 | COc1ccc(Cl)cc1NC(=O)COC(=O)c1cc(NS(=O)(=O)c2cccs2)ccc1O | 20.6 µM [falling, partial curve] | –
5 | COc1ccc(N2C(=O)C3CC(C)=C(C)CC3C2=O)c(OC)c1 (configuration not stated) | 6.51 µM [rising, single point] | –
6 | COc1ccc(N2Cc3ccccc3C2=O)cc1 | 14.1 µM [falling, single point] | –
7 | CCOc1ccc(/C=C2\SC(=S)N(CCC(=O)Nc3cccc(C(=O)O)c3)C2=O)cc1 | 7.94 µM [falling, partial curve] | –
8 | Cc1cc(C)c(S(=O)(=O)Cc2ccccc2)c(OC(C)C)n1 | 3.16 µM [rising, full curve, poor fit] | –
9 | CNC(=S)N/N=C/c1ccc(OCc2ccccc2)c(Br)c1 | 14.6 µM [rising, partial curve] | –
10 | O=C(CNC(=O)c1cccs1)NCC(=O)OCc1cccc(Cl)c1 | 17.8 µM [rising, partial curve, poor fit] | –
11 | O=[N+]([O-])c1ccc(NS(=O)(=O)c2cccc3cccnc23)cc1 | 35.5 µM [rising, partial curve, poor fit] | –
12 | CS(=O)(=O)c1ncc(Cl)c(C(=O)Nc2ccc3ccccc3c2)n1 | 3.16 µM [falling, full curve] | –
13 | N/C(=N\OC(=O)c1ccccc1)c1ccncc1 | 35.5 µM [falling, single point] | –
14 | O=[N+]([O-])c1ccc(-c2csc(N3CCCCCC3)n2)cc1 | 7.08 µM [rising, full curve] | –
15 | CCOc1cc(/C=C/c2ccc3cccc([N+](=O)[O-])c3n2)ccc1OCC(=O)N(C)C | 35.5 µM [falling, single point] | –
16 | COc1ccc(NC(=O)c2c(F)cccc2F)cc1S(=O)(=O)Nc1ccc(Br)cc1 | 7.31 µM [falling, partial curve] | –
17 | CCn1c(Cc2ccccc2)n[nH]c1=S | 6.31 µM [rising, single point] | –
18 | Cc1nn2c(COc3ccc(NC(=O)C(C)C)cc3)nnc2c2ccccc12 | 1.41 µM [rising, partial curve, poor fit] | –
19 | COc1cccc(CC(=O)OC(C)C(=O)Nc2ncc(Cl)cc2Cl)c1 (configuration not stated) | 2.91 µM [rising, full curve] | –
20 | O=C(Nc1ccc(C(=O)O)cc1)/C(=C\c1cccc([N+](=O)[O-])c1)NC(=O)c1ccc(Br)o1 | 11.2 µM [falling, partial curve] | –
21 | C/C(=N\NC(=O)c1cc(-c2cccs2)nc2ccccc12)c1ccccn1 | 3.16 µM [rising, single point] | –
22 | O=C(NCc1ccccc1Br)c1cccc2c1C(=O)c1ccc(-c3ccc(OC(F)(F)F)cc3)cc1S2(=O)=O | 9.2 µM [rising, partial curve] | –

Row | Structure (SMILES) | AC50 [1] | AC50 [2]
23 | O=C(Nc1ccc([N+](=O)[O-])cc1)Nn1cnnc1 | 17.8 µM [rising, single point] | –
24 | O=C(NCCCN1CCCCCC1)c1ccc2c(Cl)c3c(nc2c1)CCCC3 | 17.8 µM [falling, single point] | –
25 | N#Cc1ccc(/C=C/C(=O)c2cccnc2)cc1 | 22.4 µM [rising, single point] | –
26 | FC(F)(F)c1cnc2c(-c3ccc(Cl)cc3Cl)noc2c1 | 29.1 µM [rising, single point] | –
27 | COc1cccc(C(=O)/C(C#N)=N/Nc2cccc(-c3ccnc(C)n3)c2)c1 | 4.47 µM [rising, full curve, poor fit] | –
28 | CC(C)c1ccc(NC2CCCN(C(=O)CCN3CCCCO3)C2)cc1 (configuration not stated) | 17.8 µM [rising, single point] | –
29 | CN(Cc1ccc(C(F)(F)F)cc1)C(=O)c1ccc2ccccc2n1 | 15.8 µM [rising, single point] | –
30 | COc1ccc(S(=O)(=O)Nc2ccc3c(c2)n(C)c(=O)n3C)cc1 | 35.5 µM [rising, single point] | 14.1 µM [falling, partial curve, poor fit]
31 | COc1ccc(Br)c(-c2nnc(CS(=O)(=O)c3ccccc3)o2)c1 | 12.6 µM [rising, partial curve, poor fit] | –
32 | CC/C(=N\NC(=O)c1ccc2c(c1)OCO2)C12CC3CC(CC(C3)C1)C2 | 13 µM [falling, partial curve] | –
33 | Cc1ccc2nc(SCC(=O)Nc3ccc(Br)cc3)nc(=O)n2c1 | 29.1 µM [rising, single point] | –
34 | CCOC(=O)c1[nH]c(C)c(/C(O)=C2\C(=O)C(=O)N(CCCN(C)C)C2c2ccncc2)c1C (configuration not stated) | 0.631 µM [falling, partial curve, poor fit] | –
35 | Oc1ccc(N=Nc2ccccc2)o1 | 35.5 µM [falling, single point] | –
36 | Cc1c(CCC(=O)O)c(=O)oc2cc3occ(-c4ccccc4)c3cc12 | 3.98 µM [rising, partial curve, poor fit] | –
37 | Cc1cc(Nc2nnnn2-c2ccccc2)n(-c2ccc(Cl)cc2)n1 | 6.31 µM [falling, partial curve] | –
38 | O=C(NCc1ccc(F)cc1)C1CC(=O)N(Cc2ccco2)C1 (configuration not stated) | 35.5 µM [falling, single point] | –
39 | CCOc1ccccc1NC(=O)COc1cccc2c(=O)n(CCOC)ccc12 | 0.158 µM [falling, full curve, poor fit] | –
40 | Cc1cc(Br)c(Cl)cc1NC(=O)CN1C(=O)C2C3CC(c4ccccc4)C(C3)C2C1=O (configuration not stated) | 20.6 µM [falling, partial curve] | –
41 | O=C1CCCc2nc3nc4ccccc4n3cc21 | 35.5 µM [falling, single point] | –
42 | COCCn1c(SCCCc2ccccc2)nc2c1c(=O)[nH]c(=O)n2C | 1.41 µM [falling, full curve] | –
43 | O=c1c2ccccc2nc(/C=C/c2cc(Br)ccc2O)n1CCCO | 12.6 µM [falling, single point] | –
44 | O=C(NCCC1CCCCN1S(=O)(=O)c1ccc(F)cc1)C(=O)NCc1cccnc1 (configuration not stated) | 1.64 µM [falling, partial curve, poor fit] | –

Filtered by structure, the compounds so far with fluorine
Row | Structure (SMILES) | AC50 [1] | AC50 [2]
2 | C=CCNC(=O)N1CCc2[nH]c3ccc(F)cc3c2C1 | 15.8 µM [falling, single point] | –
16 | COc1ccc(NC(=O)c2c(F)cccc2F)cc1S(=O)(=O)Nc1ccc(Br)cc1 | 7.31 µM [falling, partial curve] | –
22 | O=C(NCc1ccccc1Br)c1cccc2c1C(=O)c1ccc(-c3ccc(OC(F)(F)F)cc3)cc1S2(=O)=O | 9.2 µM [rising, partial curve] | –
26 | FC(F)(F)c1cnc2c(-c3ccc(Cl)cc3Cl)noc2c1 | 29.1 µM [rising, single point] | –
29 | CN(Cc1ccc(C(F)(F)F)cc1)C(=O)c1ccc2ccccc2n1 | 15.8 µM [rising, single point] | –
38 | O=C(NCc1ccc(F)cc1)C1CC(=O)N(Cc2ccco2)C1 (configuration not stated) | 35.5 µM [falling, single point] | –
44 | O=C(NCCC1CCCCN1S(=O)(=O)c1ccc(F)cc1)C(=O)NCc1cccnc1 (configuration not stated) | 1.64 µM [falling, partial curve, poor fit] | –

Next results:

Row | Structure (SMILES) | AC50 [1] | AC50 [2]
45 | CCN(CC)S(=O)(=O)c1ccc(NC(=O)c2ccc(Cl)nc2)cc1 | 4.47 µM [falling, full curve, poor fit] | –
46 | COc1ccccc1NC(=O)CCCNC(=O)Cn1cnc2sc(C)c(C)c2c1=O | 35.5 µM [falling, single point] | –
47 | NC(=O)c1oc2ccccc2c1NC(=O)C1CC(=O)N(c2ccccc2)C1 (configuration not stated) | 5.17 µM [falling, partial curve, poor fit] | 2.31 µM [rising, partial curve, poor fit]
48 | O=C(Nc1ccccc1)c1cccc(N2C(=O)C3C4C=CC(C5CC45)C3C2=O)c1 (configuration not stated) | 22.4 µM [falling, single point] | –
49 | N#Cc1cccc(NC(=O)CCc2ccc(S(=O)(=O)N3CCOCC3)cc2)c1 | 29.1 µM [falling, single point] | –
50 | COc1ccc(C(=O)CSc2nnc(CNC(=O)c3ccccc3)n2C)cc1 | 1 µM [rising, full curve, poor fit] | –
51 | COc1cc(C2Nc3ccccc3C(=O)N2c2ccccc2OC)ccc1O (configuration not stated) | 11.6 µM [falling, partial curve] | –
52 | CCCC1(CCC)C(=O)NC(=NCCc2ccc(OC)c(OC)c2)NC1=O | 29.1 µM [rising, partial curve, poor fit] | –
53 | O=[N+]([O-])c1nn(-c2ccc3c(c2)OCCO3)n(O)c1=NC1CCCCC1 | 16.4 µM [rising, single point] | –
54 | Cc1ccc(CNC(=O)CCC2CCCN(Cc3cccc4cccnc34)C2)o1 (configuration not stated) | 22.4 µM [falling, partial curve, poor fit] | –
55 | CCOc1ccc2nc(NS(=O)(=O)Cc3ccccc3)sc2c1 | – | 2.91 µM [falling, full curve]
56 | CCOC(=O)c1cnn(-c2ccccc2)c1-c1ccncc1 | 10 µM [falling, partial curve, poor fit] | –
57 | Cc1cc(C(=O)NCc2ccc(F)cc2)c2ccccc2n1 | 0.0891 µM [rising, full curve, poor fit] | –
58 | C/C(=C\c1ccccc1)C(=O)NCCc1ccccc1 | 11.2 µM [falling, single point] | –
59 | CCCCC(=O)Nc1cccc(NC(=O)c2cccnc2Cl)c1 | 35.5 µM [falling, single point] | –
60 | O=C1C2CCCN2C(=S)N1C1CCCCC1 (configuration not stated) | 20 µM [falling, single point] | –
61 | Cc1ccc(N2CC(C(=O)OCC(=O)Nc3ccccc3F)CC2=O)cc1 (configuration not stated) | 17.8 µM [rising, partial curve, poor fit] | –
62 | Cc1cc(S(=O)(=O)NCC(C)C)ccc1OCC(=O)N1CCOCC1 | 6.51 µM [rising, single point] | –
63 | Cc1cccc(OCCCC(=O)NNC(=O)c2cccc(N(C)C)c2)c1 | 29.1 µM [rising, single point] | 13 µM [falling, partial curve, poor fit]
64 | Cc1ccc(/C=N/Nc2cc(C)nc(NCc3ccccc3)n2)cc1 | 10 µM [rising, partial curve] | –

Record cards, from the list above.
C/C(=C\c1ccccc1)C(=O)NCCc1ccccc1 as listed: AC50 [1]: 11.2 µM [falling, single point]
Cc1cc(S(=O)(=O)NCC(C)C)ccc1OCC(=O)N1CCOCC1 as listed: AC50 [1]: 6.51 µM [rising, single point]
